Among the data in patent US20050203007A1 are binding values, retold here.

No constants are given. Whether binding was seen depends on the method and setting. Binding calls can cover weak binding; strength is not graded here.

B1: R1-eglin (designed binder)
chain: SMGSELKSFPEVVGKTVDQAREYFTLHYPQYDVYFLPEGSPVTRDLRYNRVRVFYNPGTNVVNHVPHVG
B2: R4K1-eglin (designed binder)
chain: SMGSELKSFPEVVGKTVDQAREYFTLHYPQYDVYFLPEGSRVTKDLRYNRVRVFYNPGTNVVNHVPHVG
B3: M4K1-eglin (designed binder)
chain: SMGSELKSFPEVVGKTVDQAREYFTLHYPQYDVYFLPEGSMVTKDLRYNRVRVFYNPGTNVVNHVPHVG

The target of this experiment is trypsin. The experiment in a line: titration of inhibitor with active-site titrated trypsin.
As to B1, the binding result was “binds”.
For the molecule B2, the binding result was “binds”.
Take B3: the binding entry was “binds”.
